Experimental findings from paper PMC7971890 are described below.

The chains behind the UniProt entries cited, without tags or fusion partners.
UniProt Q99942: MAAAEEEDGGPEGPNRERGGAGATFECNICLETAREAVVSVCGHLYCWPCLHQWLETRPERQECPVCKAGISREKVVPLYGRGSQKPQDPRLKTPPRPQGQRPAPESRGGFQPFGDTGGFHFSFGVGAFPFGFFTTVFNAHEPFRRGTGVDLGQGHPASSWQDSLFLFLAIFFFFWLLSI

The assay deals with T1, In vitro-translated IRF3 (UniProt Q14653).
T1 sequence: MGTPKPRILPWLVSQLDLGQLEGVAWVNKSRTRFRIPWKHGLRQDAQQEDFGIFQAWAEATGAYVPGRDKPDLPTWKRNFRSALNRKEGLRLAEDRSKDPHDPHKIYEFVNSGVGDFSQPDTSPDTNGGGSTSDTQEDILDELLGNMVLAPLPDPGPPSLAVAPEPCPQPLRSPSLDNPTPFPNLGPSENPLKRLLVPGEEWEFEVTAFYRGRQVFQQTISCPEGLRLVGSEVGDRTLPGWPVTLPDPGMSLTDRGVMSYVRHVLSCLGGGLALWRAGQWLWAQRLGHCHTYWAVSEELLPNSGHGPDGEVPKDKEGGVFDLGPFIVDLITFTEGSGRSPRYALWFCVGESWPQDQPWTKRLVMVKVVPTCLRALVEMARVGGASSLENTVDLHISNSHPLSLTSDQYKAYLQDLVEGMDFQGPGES
Description: co-IP; in vitro transcribed and translated IRF3 and RNF5 mixed, IP with IRF3 antibody (Fig 6H, far-right panel).

These are yes or no findings as the source states them, for the method shown. In cells and extracts the contact can be indirect.

With “In vitro-translated RNF5 (from UniProt Q99942 1-180) (enzyme)”, the binding entry was “no binding”.
